From paper PMC8590012 come the findings set out here.

No constants are given. Whether binding was seen depends on the method and setting. Binding seen in cells or lysates may run through a third protein. Some binding calls cover weakened binding; strength is not graded here. Sequences can lack the tags named with a protein.

Assay [1] deals with T1, GFP-tagged Mtr10 (S. cerevisiae) (UniProt Q99189).
T1 sequence: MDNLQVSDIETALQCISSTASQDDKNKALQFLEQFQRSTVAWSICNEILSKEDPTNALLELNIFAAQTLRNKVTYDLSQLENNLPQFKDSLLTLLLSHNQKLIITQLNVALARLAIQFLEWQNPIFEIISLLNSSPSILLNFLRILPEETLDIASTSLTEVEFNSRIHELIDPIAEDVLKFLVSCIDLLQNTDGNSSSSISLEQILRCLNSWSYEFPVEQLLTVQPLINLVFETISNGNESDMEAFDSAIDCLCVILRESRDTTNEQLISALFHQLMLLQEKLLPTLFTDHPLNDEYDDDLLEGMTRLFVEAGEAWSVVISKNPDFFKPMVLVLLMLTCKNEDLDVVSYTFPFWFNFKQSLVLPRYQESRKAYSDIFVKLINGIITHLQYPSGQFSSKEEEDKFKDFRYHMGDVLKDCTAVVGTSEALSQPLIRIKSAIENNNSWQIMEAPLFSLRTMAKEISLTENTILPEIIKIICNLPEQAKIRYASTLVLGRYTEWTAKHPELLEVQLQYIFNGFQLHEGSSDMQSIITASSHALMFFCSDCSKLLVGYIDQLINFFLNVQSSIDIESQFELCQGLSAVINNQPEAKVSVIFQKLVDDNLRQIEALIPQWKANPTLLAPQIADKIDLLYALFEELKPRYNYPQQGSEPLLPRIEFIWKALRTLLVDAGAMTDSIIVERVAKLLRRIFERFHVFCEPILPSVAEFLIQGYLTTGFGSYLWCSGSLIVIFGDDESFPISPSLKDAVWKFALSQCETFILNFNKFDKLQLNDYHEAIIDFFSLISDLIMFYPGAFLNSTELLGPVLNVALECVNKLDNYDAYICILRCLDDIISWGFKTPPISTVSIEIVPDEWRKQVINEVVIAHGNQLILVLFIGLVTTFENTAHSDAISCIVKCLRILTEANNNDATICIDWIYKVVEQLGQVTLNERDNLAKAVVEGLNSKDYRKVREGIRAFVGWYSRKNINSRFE
Put plainly: co-IP; yeast lysate in IP buffer (1 x PBS, 3 mM KCl, 2.5 mM MgCl2, 0.5% Triton X-100, protease inhibitors); GFP-tagged bait on GFP-Selector beads, 1 h at 4 °C, five washes; Western blot. Background: A western blot detects proteins with antibodies after separation by electrophoresis.

Assay [2] addresses T2, myc-tagged Mtr10 (S. cerevisiae) (UniProt Q99189).
T2 sequence: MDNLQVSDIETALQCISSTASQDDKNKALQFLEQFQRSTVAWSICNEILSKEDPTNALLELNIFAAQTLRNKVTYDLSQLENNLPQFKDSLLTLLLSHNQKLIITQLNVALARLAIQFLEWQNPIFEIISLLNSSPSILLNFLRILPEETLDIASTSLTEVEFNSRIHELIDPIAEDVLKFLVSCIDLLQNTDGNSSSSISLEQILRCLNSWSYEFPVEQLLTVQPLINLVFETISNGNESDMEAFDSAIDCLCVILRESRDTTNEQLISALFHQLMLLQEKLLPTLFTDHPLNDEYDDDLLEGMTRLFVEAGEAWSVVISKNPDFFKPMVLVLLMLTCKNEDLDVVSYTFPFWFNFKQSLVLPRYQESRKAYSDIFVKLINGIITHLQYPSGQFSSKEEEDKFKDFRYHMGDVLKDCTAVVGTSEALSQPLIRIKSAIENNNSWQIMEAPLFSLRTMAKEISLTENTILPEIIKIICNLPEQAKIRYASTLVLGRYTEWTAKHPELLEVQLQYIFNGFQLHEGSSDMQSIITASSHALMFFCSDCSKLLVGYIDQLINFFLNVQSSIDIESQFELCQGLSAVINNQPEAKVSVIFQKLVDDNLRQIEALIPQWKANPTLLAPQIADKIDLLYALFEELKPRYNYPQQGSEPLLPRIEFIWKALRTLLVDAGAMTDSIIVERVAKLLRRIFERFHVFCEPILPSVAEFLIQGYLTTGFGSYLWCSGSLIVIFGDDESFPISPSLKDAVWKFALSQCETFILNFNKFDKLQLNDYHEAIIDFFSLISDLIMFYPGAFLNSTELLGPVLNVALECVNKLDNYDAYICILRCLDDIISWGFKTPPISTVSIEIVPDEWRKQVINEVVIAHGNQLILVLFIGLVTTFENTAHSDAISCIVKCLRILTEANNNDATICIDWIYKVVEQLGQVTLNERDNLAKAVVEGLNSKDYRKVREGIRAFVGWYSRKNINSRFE
Put plainly: co-IP; yeast lysate in IP buffer (1 x PBS, 3 mM KCl, 2.5 mM MgCl2, 0.5% Triton X-100, protease inhibitors); myc-tagged bait on Myc-trap beads, 1 h at 4 °C, five washes; Western blot.

Assay [3] deals with T3, GFP-tagged Pop1 (S. cerevisiae) (UniProt P41812).
T3 sequence: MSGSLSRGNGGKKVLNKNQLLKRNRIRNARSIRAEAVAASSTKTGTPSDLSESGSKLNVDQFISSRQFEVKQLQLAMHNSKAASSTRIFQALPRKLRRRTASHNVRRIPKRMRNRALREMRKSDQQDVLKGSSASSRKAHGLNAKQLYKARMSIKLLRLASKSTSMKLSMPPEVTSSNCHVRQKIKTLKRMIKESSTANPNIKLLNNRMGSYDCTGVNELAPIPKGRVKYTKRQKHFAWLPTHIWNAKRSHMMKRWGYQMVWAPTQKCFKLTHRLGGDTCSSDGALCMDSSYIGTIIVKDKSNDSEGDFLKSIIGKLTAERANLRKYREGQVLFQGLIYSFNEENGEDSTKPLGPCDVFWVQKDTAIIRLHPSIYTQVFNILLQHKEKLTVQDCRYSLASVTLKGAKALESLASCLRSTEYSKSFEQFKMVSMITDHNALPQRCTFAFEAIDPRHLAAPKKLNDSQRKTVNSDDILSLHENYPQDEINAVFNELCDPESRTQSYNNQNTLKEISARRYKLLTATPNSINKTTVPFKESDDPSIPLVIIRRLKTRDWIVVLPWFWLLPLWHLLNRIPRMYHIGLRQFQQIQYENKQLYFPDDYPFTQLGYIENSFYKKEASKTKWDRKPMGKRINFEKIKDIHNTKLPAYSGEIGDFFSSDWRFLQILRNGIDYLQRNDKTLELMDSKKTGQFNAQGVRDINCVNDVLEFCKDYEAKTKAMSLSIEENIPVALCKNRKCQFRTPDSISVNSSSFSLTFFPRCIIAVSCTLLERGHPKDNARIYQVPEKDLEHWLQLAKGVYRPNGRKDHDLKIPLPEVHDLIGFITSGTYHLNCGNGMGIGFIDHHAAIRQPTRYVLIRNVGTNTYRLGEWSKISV
Put plainly: co-IP; yeast lysate in IP buffer (1 x PBS, 3 mM KCl, 2.5 mM MgCl2, 0.5% Triton X-100, protease inhibitors); GFP-tagged bait on GFP-Selector beads, 1 h at 4 °C, five washes; Western blot.

The target of assay [4] is T4, GFP-tagged Smb1 (S. cerevisiae) (UniProt P40018).
T4 sequence: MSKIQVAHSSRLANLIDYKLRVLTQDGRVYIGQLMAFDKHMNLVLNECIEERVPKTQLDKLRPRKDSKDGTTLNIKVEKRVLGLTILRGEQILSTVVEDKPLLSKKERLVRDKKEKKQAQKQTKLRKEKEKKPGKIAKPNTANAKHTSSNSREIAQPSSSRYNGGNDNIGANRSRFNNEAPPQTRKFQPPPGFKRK
Described as above.

B1: myc-tagged Est1 (protein, UniProt P17214 1-699)
chain: MDNEEVNEECMRLFFKNARAHLDKHLTSRLTCDENAYITFRCFLDGIHRKSTRFLEELLLKQENMYHNNNYERINDSVIPLVLKLLWLQIHEPTLQWFEHWFHDIMRLSNRRKFRVFRIFQKKMIQFFKITHRYYYDIIEHLCAKYDMNSVISNALFAKLNLMQYTDGLSTHEKIILNTSNPLTFSIVISLQRCVINLGSTHFYKTLLNKPSNKPKSVEGFEKSIRYLNIASLYLPAVGDTYFQRAKIYLITGKFSLYFFELVRGALVRIPSKCALNNLKDFILTPDFPERRRLMKKLAILVSKDLKGEKSFFEGQIVLQFLSIVEHTLVPQSWNASRASNCWLLKEHLQMAALKYHSGNINVILENLAATMGSFDLMFTTRKSKEQKNKLKYADLSERQVFFLDLSFDFIANIIDVVIKPSWQKNMEDFRYLAIIRLLMCWIKSYRSILQYTHRHRKFCTSFALLLNDLINSPLNCSGNIYSHRPKRSYLFREDIIFREFSCINFALTDFNDDYVYDSPDMINNIIGCPTLTKVLSPKEECVLRIRSIIFSGMKFLEKNDTGVIWNASKYKFDLISPNIKIKRQIALSEISSKINVKTQQERVVSSRKVEAKRDEQQRKRAGKIAVTELEKQFANVRRTKKLSPLPEKDGVSSELVKHAASRGRKTITGPLSSDFLSYPDEAIDADEDITVQVPDTPT
Consider B1, for which, in assay [1], the binding entry is “no binding”.

B2: Yku70 (protein, UniProt P32807 1-602)
chain: MRSVTNAFGNSGELNDQVDETGYRKFDIHEGILFCIELSETMFKESSDLEYKSPLLEILESLDELMSQLVITRPGTAIGCYFYYCNREDAKEGIYELFPLRDINATFMKKLNDLLEDLSSGRISLYDYFMFQQTGSEKQVRLSVLFTFMLDTFLEEIPGQKQLSNKRVFLFTDIDKPQEAQDIDERARLRRLTIDLFDNKVNFATFFIGYADKPFDNEFYSDILQLGSHTNENTGLDSEFDGPSTKPIDAKYIKSRILRKKEVKRIMFQCPLILDEKTNFIVGVKGYTMYTHEKAGVRYKLVYEHEDIRQEAYSKRKFLNPITGEDVTGKTVKVYPYGDLDINLSDSQDQIVMEAYTQKDAFLKIIGFRSSSKSIHYFNNIDKSSFIVPDEAKYEGSIRTLASLLKILRKKDKIAILWGKLKSNSHPSLYTLSPSSVKDYNEGFYLYRVPFLDEIRKFPSLLSYDDGSEHKLDYDNMKKVTQSIMGYFNLRDGYNPSDFKNPLLQKHYKVLHDYLLQIETTFDENETPNTKKDRMMREDDSLRKLYYIRNKILESEKSEDPIIQRLNKYVKIWNMFYKKFNDDNISIKEEKKPFDKKPKFNI
In the case of B2, the binding entry in assay [2] is “no binding”.

B3: myc-tagged Mtr10 (protein, UniProt Q99189 1-972)
chain: MDNLQVSDIETALQCISSTASQDDKNKALQFLEQFQRSTVAWSICNEILSKEDPTNALLELNIFAAQTLRNKVTYDLSQLENNLPQFKDSLLTLLLSHNQKLIITQLNVALARLAIQFLEWQNPIFEIISLLNSSPSILLNFLRILPEETLDIASTSLTEVEFNSRIHELIDPIAEDVLKFLVSCIDLLQNTDGNSSSSISLEQILRCLNSWSYEFPVEQLLTVQPLINLVFETISNGNESDMEAFDSAIDCLCVILRESRDTTNEQLISALFHQLMLLQEKLLPTLFTDHPLNDEYDDDLLEGMTRLFVEAGEAWSVVISKNPDFFKPMVLVLLMLTCKNEDLDVVSYTFPFWFNFKQSLVLPRYQESRKAYSDIFVKLINGIITHLQYPSGQFSSKEEEDKFKDFRYHMGDVLKDCTAVVGTSEALSQPLIRIKSAIENNNSWQIMEAPLFSLRTMAKEISLTENTILPEIIKIICNLPEQAKIRYASTLVLGRYTEWTAKHPELLEVQLQYIFNGFQLHEGSSDMQSIITASSHALMFFCSDCSKLLVGYIDQLINFFLNVQSSIDIESQFELCQGLSAVINNQPEAKVSVIFQKLVDDNLRQIEALIPQWKANPTLLAPQIADKIDLLYALFEELKPRYNYPQQGSEPLLPRIEFIWKALRTLLVDAGAMTDSIIVERVAKLLRRIFERFHVFCEPILPSVAEFLIQGYLTTGFGSYLWCSGSLIVIFGDDESFPISPSLKDAVWKFALSQCETFILNFNKFDKLQLNDYHEAIIDFFSLISDLIMFYPGAFLNSTELLGPVLNVALECVNKLDNYDAYICILRCLDDIISWGFKTPPISTVSIEIVPDEWRKQVINEVVIAHGNQLILVLFIGLVTTFENTAHSDAISCIVKCLRILTEANNNDATICIDWIYKVVEQLGQVTLNERDNLAKAVVEGLNSKDYRKVREGIRAFVGWYSRKNINSRFE
Regarding B3, the binding result in assay [3] is listed as “no binding”; in assay [4], “binds”.
